For one molecule, binding results are on record in paper PMC6881349.

Protein sequences, listed by entry. Tags and fused reporters are not part of them.
UniProt P40763: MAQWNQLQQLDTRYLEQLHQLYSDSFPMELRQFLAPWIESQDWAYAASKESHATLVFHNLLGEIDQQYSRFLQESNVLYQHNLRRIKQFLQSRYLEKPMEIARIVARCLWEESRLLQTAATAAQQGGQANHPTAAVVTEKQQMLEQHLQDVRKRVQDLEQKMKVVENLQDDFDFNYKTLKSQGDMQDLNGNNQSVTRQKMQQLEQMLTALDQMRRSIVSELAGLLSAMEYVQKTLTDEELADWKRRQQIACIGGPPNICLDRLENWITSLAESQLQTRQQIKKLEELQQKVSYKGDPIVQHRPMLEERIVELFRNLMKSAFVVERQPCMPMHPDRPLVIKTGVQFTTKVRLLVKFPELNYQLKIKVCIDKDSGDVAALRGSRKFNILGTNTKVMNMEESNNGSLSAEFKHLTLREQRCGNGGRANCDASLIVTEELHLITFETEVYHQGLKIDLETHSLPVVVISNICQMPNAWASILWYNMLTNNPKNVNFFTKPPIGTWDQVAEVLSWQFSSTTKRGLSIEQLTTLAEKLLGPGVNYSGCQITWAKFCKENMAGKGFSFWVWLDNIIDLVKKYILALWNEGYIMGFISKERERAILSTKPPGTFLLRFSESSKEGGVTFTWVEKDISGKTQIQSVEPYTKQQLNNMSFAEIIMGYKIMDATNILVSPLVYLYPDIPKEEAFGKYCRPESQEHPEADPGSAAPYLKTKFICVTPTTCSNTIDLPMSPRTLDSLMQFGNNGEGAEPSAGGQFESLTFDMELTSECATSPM

Assay [1] has as its target STAT3 (human (endogenous in human vascular endothelial cells)) (UniProt P40763). Put plainly: co-IP; lysates extracted from human vascular endothelial cells; 'indicated antibodies'; endogenous proteins.
For assay [2] the target is unchanged. The assay can be described thus: Re-ChIP; human vascular endothelial cells treated with TGF-β for 72 h; chromatin cross-linked with 1% formaldehyde; immune complexes eluted and precipitated with a second antibody; read on the Twist1 promoter.

These are yes or no findings as the source states them, for the method shown. For some assays here: In cells and extracts the contact can be indirect. Some results given as binding are weak or reduced against the parent protein; the word gives no strength.

B1: Megakaryocytic leukemia 1 (MKL1) (protein, UniProt Q969V6 1-931)
chain: MPPLKSPAAFHEQRRSLERARTEDYLKRKIRSRPERSELVRMHILEETSAEPSLQAKQLKLKRARLADDLNEKIAQRPGPMELVEKNILPVESSLKEAIIVGQVNYPKVADSSSFDEDSSDALSPEQPASHESQGSVPSPLEARVSEPLLSATSASPTQVVSQLPMGRDSREMLFLAEQPPLPPPPLLPPSLTNGTTIPTAKSTPTLIKQSQPKSASEKSQRSKKAKELKPKVKKLKYHQYIPPDQKQDRGAPPMDSSYAKILQQQQLFLQLQILNQQQQQHHNYQAILPAPPKSAGEALGSSGTPPVRSLSTTNSSSSSGAPGPCGLARQNSTSLTGKPGALPANLDDMKVAELKQELKLRSLPVSGTKTELIERLRAYQDQISPVPGAPKAPAATSILHKAGEVVVAFPAARLSTGPALVAAGLAPAEVVVATVASSGVVKFGSTGSTPPVSPTPSERSLLSTGDENSTPGDTFGEMVTSPLTQLTLQASPLQILVKEEGPRAGSCCLSPGGRAELEGRDKDQMLQEKDKQIEALTRMLRQKQQLVERLKLQLEQEKRAQQPAPAPAPLGTPVKQENSFSSCQLSQQPLGPAHPFNPSLAAPATNHIDPCAVAPGPPSVVVKQEALQPEPEPVPAPQLLLGPQGPSLIKGVAPPTLITDSTGTHLVLTVTNKNADSPGLSSGSPQQPSSQPGSPAPAPSAQMDLEHPLQPLFGTPTSLLKKEPPGYEEAMSQQPKQQENGSSSQQMDDLFDILIQSGEISADFKEPPSLPGKEKPSPKTVCGSPLAAQPSPSAELPQAAPPPPGSPSLPGRLEDFLESSTGLPLLTSGHDGPEPLSLIDDLHSQMLSSTAILDHPPSPMDTSELHFVPEPSSTMGLDLADGHLDSMDWLELSSGGPVLSLAPLSTTAPSLFSTDFLDGHDLQLHWDSCL
For the molecule B1, the binding result in assay [1] and in assay [2] was “binds” in each case.
